Construct, isoform or probe ends are uncertain for at least one entry.
System: HpyCH4V restriction endonuclease (Helicobacter pylori CH4)
Experiment: enzyme reaction in vitro
Settings: cleaves between G and C on both strands, blunt ends; primer extension product on M13mp18, 37 C 1 h; purified native protein; only the motif is given

**Q.** With “TGCA (double strand) [HpyCH4V recognition site TGCA]” as the sequence, how does the “activity on this sequence” value read?
**A.** Its value is “active”.

Reference: patent US6133009
